Results from US20260116980A1.
No constants are given. Whether binding was seen depends on the method and setting. Some binding calls cover weakened binding; strength is not graded here.

Molecular target: cyno B7H3 on overexpressing cells (cyno)
Assay: FACS on NK92mi/cynoB7H3 cells, serially diluted antibody, APC-conjugated secondary antibody

B1: BGA-3726 (purified anti-B7H3 mAb as used in Examples 2-4) (antibody, V domains shown)
VH: QVQLQESGPGLVKPSGTLSLTCAVSGGSISTSNWWNWVRQSPGKGLEWIGEIYPTGNTNYSPSLKSRVTISIDKSKNQFSLKLNSVTAADTAVYYCARGWNWFDPWGQGTLVTVSS
VL: EIVLTQSPGTLSLSPGERATLSCRTSQSINGILLAWYQQKPGQAPRLLIYGASSRATGIPDRFSGSGSGTDFTLSISRLEPEDFAVYYCQQYGSSPRTFGQGTKVEIK
B1 was tested, and the binding was “binds”.
